The record followed here is patent US20100068215A1 (published 2010).

The assay has as its target T1, GDF11 (UniProt O95390 299-407).
T1 sequence (looked up): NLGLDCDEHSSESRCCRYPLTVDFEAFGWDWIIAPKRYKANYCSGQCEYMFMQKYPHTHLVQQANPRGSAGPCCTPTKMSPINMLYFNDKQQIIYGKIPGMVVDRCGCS
As to the kind of experiment: Biacore; ActRIIB-Fc captured by anti-hFc antibody, ligand injected. As for the experimental part:
Binding of certain ActRIIB-Fc proteins and GDF Traps to ligands was tested in a BiaCore™ assay.
The ActRIIB-Fc variants or wild-type protein were captured onto the system using an anti-hFc antibody. Ligands were injected and flowed over the captured receptor proteins.
(In general: Surface plasmon resonance follows binding to a sensor surface in real time, without labels.)

These are yes or no findings as the source states them, for the method shown. Some entries that bind do so weakly or less than the wild type.

B1: ActRIIB(A24N 20-134)-hFc (Fc fusion)
chain: GRGENETRECIYYNANWELERTNQSGLERCEGEQDKRLHCYASWRNSSGTIELVKKGCWLDDFNCYDRQECVATEENPQVYFCCCEGNFCNERFTHLPEAGGPEVTYEPPPTAPTGGG
notes: also called the A24N variant; not shown: human Fc domain (hFc)
As to B1, the binding result was “binds”.
